Results reported in PubChem BioAssay AID504467 (National Center for Advancing Translational Sciences (NCATS), 2011).
Out of some 330,000 compounds screened, about 7,700 (2.3%) were called active. The inconclusive results got no clear call from the source; some entries with a clear call stand among them for comparison. The call rests on the fitted dose curve; in most records, active means well fitted inhibition curve with a large enough effect; inconclusive means small, poorly fitted or top-dose-only effect, or effect the other way; inactive means flat fitted curve, though single readings scatter. Potencies beside an inconclusive call are fits to weak or partial responses and may not hold up.

test: qHTS screen for small molecules that inhibit ELG1-dependent DNA repair in human embryonic kidney (HEK293T) cells expressing luciferase-tagged ELG1; conditions: HEK293T ELG1-luciferase reporter, luminescence, 16 h, DNA damage induced by 5-fluorouridine; activity change, negative = inhibition: at 46.1 µM (top of the series); further: nearly all actives have a fitted effect of over 55% in size
How it was run: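 Cells (2,000 per well) received 5-fluorouridine plus test compound or DMSO and were incubated 16 hr at 37 °C, 5% CO2. Luciferase activity was read by luminescence 30 min after ONE-Glo addition; signal suppression marked inhibition of damage-induced ELG1 function.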
On the % scale 0 is the no-effect control and ±100 the full control effect; potency means the concentration at half of the fitted maximal effect.

Row | Compound | Potency | activity change, negative = inhibition
1 | Cc1nc(N2CCC3(CC2)OCCO3)c2nnn(Cc3ccccc3F)c2n1 | inconclusive: 29.1 µM [inhibitor, partial curve, poor fit] | –
2 | COc1ccc(OC)c(Nc2nc(NCCC(C)C)nc(N)c2[N+](=O)[O-])c1 | inconclusive: 1.3 µM [inhibitor, full curve] | –
3 | COc1cc(C2CC(c3cccnc3)=NN2c2ccc(F)cc2)cc(OC)c1OC (centres undefined) | – | inactive: 15.3%
4 | Cc1ccc(NC(=O)CC2NCCNC2=O)cc1 (centres undefined) | inconclusive: 29.1 µM [activator, single point] | –
5 | NC(=O)C1CCN(C(=O)c2ccc(-c3ccccc3Cl)o2)CC1 | inconclusive: 10.3 µM [activator, partial curve] | –
6 | CCC(C)n1c(NC(=O)c2ccccc2)c(C#N)c2nc3ccccc3nc21 (centres undefined) | inconclusive: 16.4 µM [inhibitor, partial curve] | –
7 | Cc1cc2c(cc1C)N(Cc1ccccc1)C1=NCCCN12 | inconclusive: 29.1 µM [inhibitor, single point] | –
8 | C=CCc1cccc(CNc2cnc3ccccc3c2)c1O | inconclusive: 29.1 µM [activator, single point] | –
9 | CCCCNc1c(NC(C)=O)c(=O)oc2ccccc12 | inconclusive: 18.4 µM [activator, partial curve, poor fit] | –
10 | CCN1CCN(C(=O)CSc2ccc(C)cc2)CC1 | inconclusive: 23.1 µM [activator, single point] | –
11 | Brc1ccc(-c2csc(N/N=C/c3ccco3)n2)cc1 | inconclusive: 8.2 µM [activator, partial curve, poor fit] | –
12 | O=C(NCCN1CCN(C(=O)C(c2ccccc2)c2ccccc2)CC1)C(=O)Nc1ccccc1 | – | inactive: -2.51%
13 | COc1cc(/C=N/NC(=O)c2ccc(CSc3nncn3C)cc2)cc(OC)c1O | inconclusive: 2.91 µM [activator, single point] | –
14 | O=C(COc1ccc(-c2nnco2)cc1)Nc1ccc(F)c(Cl)c1 | – | inactive: -3.58%
15 | COC(=O)c1ccc(NC(=O)CC2C(=O)N(C)C(=S)N2Cc2ccc(S(N)(=O)=O)cc2)cc1 (centres undefined) | inconclusive: 20.6 µM [inhibitor, partial curve, poor fit] | –
16 | O=C(NNS(=O)(=O)c1ccccc1)c1csc(-c2cccnc2)n1 | active: 11.6 µM | –
17 | Cc1cnc(N)c2c(=O)oc3ccccc3c12 | inconclusive: 20.6 µM [activator, single point] | –
18 | COc1ccc(-n2ncc3c(NCc4ccco4)ncnc32)cc1 | inconclusive: 6.51 µM [activator, partial curve] | –
19 | Cn1cccc1/C=N/NC(=O)c1ccncc1 | – | inactive: -3.58%
20 | Cc1ccc(C)c(NC(=O)CSc2nccn2Cc2ccco2)c1 | inconclusive: 23.1 µM [activator, single point] | –
21 | C/C(CC(=O)NCc1ccc(Cl)cc1)=N\NC(=O)c1ccccc1F | inconclusive: 29.1 µM [activator, single point] | –
22 | CCN(CC)S(=O)(=O)c1cc(C(=O)N=c2sccn2C)ccc1OC | – | inactive: -6.44%
23 | COCC(=O)NCc1ccc2c(c1)OCO2 | – | inactive: 12.6%

Row | Compound | Potency | activity change, negative = inhibition
24 | Cc1ccc(NC(=O)Cn2cnc3sc(C(=O)NCCN(C)C)c(C)c3c2=O)cc1Cl | inconclusive: 23.1 µM [activator, partial curve, poor fit] | –
25 | CCOC(=O)CC1(NC(=O)c2cc(COc3ccc(F)c(F)c3)on2)CCCCC1 | – | inactive: -24.9%
26 | CN1CCN(c2ccccc2NC(=O)c2ccc(-c3cccc(Cl)c3)o2)CC1 | inconclusive: 20.6 µM [inhibitor, single point] | –
27 | O=c1c2ccccc2oc2ccc(-c3ccc4cc[nH]c4c3)cc12 | inconclusive: 0.58 µM [activator, full curve] | –
28 | Cc1ccc(-c2cc(NC(=O)CCl)n(-c3ccccc3)n2)cc1 | – | inactive: 0%
29 | COc1ccc(OC)c(NC(=O)CSc2nnc(CNC(=O)c3cc(OC)c(OC)c(OC)c3)o2)c1 | – | inactive: 7.92%
30 | COc1cccc(C(=O)COc2ccc(NC(=O)c3cccs3)cc2)c1 | active: 14.6 µM | –
31 | CCC(=O)Nc1ccc2c(c1)Cc1cc(NC(=O)CC)ccc1-2 | inconclusive: 16.4 µM [activator, partial curve, poor fit] | –
32 | COc1ccc(OCCCn2cccc2/C=C2/C(=N)N3OC(C)=CC3=NC2=O)cc1 | inconclusive: 29.1 µM [inhibitor, single point] | –
33 | COC(=O)c1ccccc1NC(=O)CSc1nc2ccccc2c(=O)[nH]1 | inconclusive: 23.1 µM [activator, partial curve, poor fit] | –
34 | O=C(Nc1ccc(N2CCN(C(=O)c3ccccc3)CC2)cc1)c1ccc2c(c1)OCO2 | inconclusive: 35.5 µM [inhibitor, single point] | –
35 | Cc1cccc(NC(=O)CSc2ccc3nnc(-c4cccnc4)n3n2)c1 | – | inactive: -0.102%
36 | COC(=O)Cc1c(C)c2ccc(OC(=O)c3ccco3)cc2oc1=O | – | inactive: 5.18%
37 | Cc1ccccc1OCCn1cnc2cc([N+](=O)[O-])ccc2c1=O | inconclusive: 20.6 µM [inhibitor, single point] | –
38 | Cn1nc(C(F)(F)F)c(/C=N/OC(=O)c2ccccc2)c1SCc1ccccc1Cl | inconclusive: 6.51 µM [inhibitor, partial curve, poor fit] | –
39 | COc1ccc(Cl)cc1NC(=O)CN(C)C(=O)CCSc1ccc(C)cc1 | inconclusive: 7.94 µM [inhibitor, partial curve] | –
40 | CC(=O)c1cccc(NC(=O)CSc2nc(N3CCCCC3)nc(N3CCCCC3)n2)c1 | inconclusive: 23.1 µM [inhibitor, single point] | –
41 | COc1ccccc1-c1c(C(F)(F)F)oc2c(CN(C)C)c(O)ccc2c1=O | – | inactive: -6.01%
42 | CCOC(=O)CSc1nnc(NCC(=O)OC)c(=O)[nH]1 | inconclusive: 18.4 µM [activator, partial curve, poor fit] | –
43 | NC(=O)C1CC(=O)N(c2ccc(OCc3ccc([N+](=O)[O-])cc3)cc2)C1 (centres undefined) | inconclusive: 5.62 µM [activator, single point] | –
44 | CCn1c2ccc(OC)cc2c2nc3ccccc3nc21 | inconclusive: 29.1 µM [inhibitor, single point] | –
45 | COc1ccc(C(=O)CSc2nnc(-c3ccc(C)cc3)o2)cc1 | – | inactive: 0%
46 | CC(NC(=O)c1ccc(C23CC4CC(CC(C4)C2)C3)cc1)C(=O)O (centres undefined) | inconclusive: 16.4 µM [activator, single point] | –

Row | Compound | Potency | activity change, negative = inhibition
47 | Cc1noc(C)c1C(=O)NC(Cc1c[nH]c2ccccc12)C(=O)O (centres undefined) | inconclusive: 10.3 µM [activator, partial curve, poor fit] | –
48 | Cc1noc(C)c1COc1cccc(C(=O)Nc2ccc(C#N)cc2)c1 | inconclusive: 18.4 µM [inhibitor, single point] | –
49 | CCCCNC(=S)Nc1cc(S(=O)(=O)N2CCCCC2)ccc1C | – | inactive: -4.07%
50 | O=[N+]([O-])c1ccc(-c2cc(-c3ccc(Cl)cc3)n[nH]2)cc1 | inconclusive: 8.2 µM [activator, partial curve] | –
51 | COc1cc(C(=O)Nc2nc3ccccc3[nH]2)cc(OC)c1OC | inconclusive: 18.4 µM [inhibitor, partial curve] | –
52 | CCCCC(=O)Nc1cccn2ncnc12 | inconclusive: 10.3 µM [inhibitor, partial curve] | –
53 | Cc1ccc(/C=C2\SC(=S)N(CC(=O)Nc3cccnc3)C2=O)cc1 | – | inactive: 13.8%
54 | Cc1ccc2nc(-c3ccccn3)c(NC3CCCC3)n2c1 | inconclusive: 18.3 µM [inhibitor, single point] | –
55 | Cc1ccc2c(c1)CCCN2C(=O)c1ccncc1 | – | inactive: -19.3%
56 | COCCNC(=O)c1cc2c(-c3ccccc3F)nn(C)c2s1 | inconclusive: 20.6 µM [inhibitor, single point] | –
57 | CCOC(=O)CCC(=O)NCc1ccc2c(c1)cc(C)n2C | – | inactive: 3.53%
58 | CCOc1ccc(NC(=O)CSc2nc3nc4c(cc3c(=O)n2CC)COC(C)(C)C4)cc1 | inconclusive: 29.1 µM [inhibitor, single point] | –
59 | COc1ccc(NC(=O)c2cccc(NC(=O)c3ccccc3)c2)c(OC)c1 | inconclusive: 20.6 µM [inhibitor, partial curve] | –
60 | COc1cc2ncnc(NCc3ccco3)c2cc1OC | inconclusive: 25.9 µM [inhibitor, partial curve, poor fit] | –
61 | CCOC(=O)c1c(NC(=O)CN2CCOCC2)sc(C(=O)NC)c1C | – | inactive: -20.9%
62 | Cc1ccc(NC(=O)CN2CCN(S(=O)(=O)c3cccs3)CC2)cc1S(=O)(=O)N(C)C | inconclusive: 20.6 µM [inhibitor, partial curve, poor fit] | –
63 | Cc1nn(-c2ccccc2)c(C)c1/C=N/NC(=O)CSc1nnc(-c2ccccc2)n1-c1ccc(Cl)cc1 | inconclusive: 20.6 µM [inhibitor, single point] | –
64 | CCn1c(=O)c(C(=O)NNS(=O)(=O)c2ccc(Cl)cc2)c(O)c2ccccc21 | – | inactive: 15.8%
65 | COc1ccc(C(=O)Nc2ccc3c(c2)CCCN3C(=O)c2cccs2)c(OC)c1 | inconclusive: 14.6 µM [inhibitor, partial curve, poor fit] | –
66 | O=C(c1ccccc1)N1CCN(C(=O)C2CC2)CC1 | – | inactive: 9.34%
67 | COc1ccc(-c2csc(/C(C#N)=C\c3ccc(O)c([N+](=O)[O-])c3)n2)cc1OC | active: 14.6 µM | –
68 | Cc1cc(OCC(=O)Nc2cccc(S(=O)(=O)N3CCCC3)c2)ccc1Cl | inconclusive: 16.4 µM [inhibitor, single point] | –
69 | O=C(O)c1ccc(Nc2nc(-c3cccnc3)cs2)cc1 | inconclusive: 7.3 µM [activator, partial curve] | –

Four of these compounds in another layout.
Cc1ccc2c(c1)CCCN2C(=O)c1ccncc1
  activity change, negative = inhibition: inactive: -19.3%
COCCNC(=O)c1cc2c(-c3ccccc3F)nn(C)c2s1
  Potency: inconclusive: 20.6 µM [inhibitor, single point]
CCOC(=O)CCC(=O)NCc1ccc2c(c1)cc(C)n2C
  activity change, negative = inhibition: inactive: 3.53%
CCOc1ccc(NC(=O)CSc2nc3nc4c(cc3c(=O)n2CC)COC(C)(C)C4)cc1
  Potency: inconclusive: 29.1 µM [inhibitor, single point]
